Results taken from patent US20030171329A1, “Stable compositions comprising tezacitabine” (priority 2002, published 2003).
Like-named read-outs stand apart in the source and are kept apart here. This continues a long series; more values of the same kind are listed elsewhere.

Description: In this study the stabilty of FMdC glutamate and glycine buffers at pH 8.5 to 9.5 was evaluated at various storage conditions (5°, 25°, 35°, 45°, and 55° C.). FMdC solutions were made up at 1 mg/mL in 7.1 mg/mL monosodium glutamate monohydrate (38 mM) or 2.8 mg/mL glycine (37 mM) and pH adjusted to target with sodium hydroxide. Solution samples were placed in stoppered glass vials and stored at the various temperatures. […] Detention was by UV at 268 nm.
The higher-temperature data can be evaluated further by Arrhenius analysis to predict shelf lives at lower temperatures. First-order rate constants are determined by fitting the concentration and time data to an equation of the form C(t)=C(0)·exp (−k·t), where C(t) is the concentration at time t, C(0) is the concentration at time 0, t is the time, and k is the first-order rate constant. The rate constants are in turn fitted to an equation of the form k (T)=A·exp (−Ea/RT), where k(T) is the rate constant at temperature T, Ea is the energy of activation, R is the gas constant, T is the absolute temperature (in ° K), and A is a constant.

[1] = Glutamate pH 8.5 buffer, 5° C., 0 weeks
[2] = Glutamate pH 9.0 buffer, 5° C., 0 weeks
[3] = Glutamate pH 9.0 buffer, 55° C., 16 weeks
[4] = Glutamate pH 9.5 buffer, 5° C., 0 weeks
[5] = Glutamate pH 9.5 buffer, 55° C., 16 weeks
[6] = Glycine pH 9.0 buffer, 5° C., 0 weeks
[7] = Glycine pH 9.0 buffer, 55° C., 16 weeks

In the case of `Nc1ccn([C@@H]2O[C@H](CO)[C@@H](O)/C2=C\F)c(=O)n1` [FMdC, (E)-2′-deoxy-2′-(fluoromethylene)cytidine], the FMdC [1] is reported as 1.00 mg/mL, the pH [1] is reported as 8.50 and the pH (Glutamate pH 8.5 buffer, 45° C., 16 weeks) is reported as 8.28. It also gave a pH (Glutamate pH 8.5 buffer, 45° C., 24 weeks) of 5.75, a pH (Glutamate pH 8.5 buffer, 55° C., 0 weeks) of 8.50 and a pH (Glutamate pH 8.5 buffer, 55° C., 4 weeks) of 7.56. For the same compound, the FMdC [2] was 1.01 mg/mL, the pH [2] was 9.00 and the pH (Glutamate pH 9.0 buffer, 45° C., 16 weeks) was 9.06. The pH (Glutamate pH 9.0 buffer, 45° C., 24 weeks) was 9.08, the pH (Glutamate pH 9.0 buffer, 55° C., 0 weeks) was 9.00 and the pH (Glutamate pH 9.0 buffer, 55° C., 4 weeks) was 9.01. The FMdC [3] was 0.60 mg/mL, the pH [3] was 8.44 and the FMdC [4] was 1.00 mglmL. The pH [4] was 9.50, the pH (Glutamate pH 9.5 buffer, 45° C., 16 weeks) was 9.68 and the pH (Glutamate pH 9.5 buffer, 45° C., 24 weeks) was 9.62. For the same compound, the pH (Glutamate pH 9.5 buffer, 55° C., 0 weeks) was 9.50, the pH (Glutamate pH 9.5 buffer, 55° C., 4 weeks) was 9.62 and the FMdC [5] was 0.69 mglmL. It also gave a pH [5] of 9.97, an FMdC [6] of 1.00 mg/mL and a pH [6] of 9.00. It also gave a pH (Glycine pH 9.0 buffer, 45° C., 4 weeks) of 9.30, a pH (Glycine pH 9.0 buffer, 45° C., 16 weeks) of 9.29 and a pH (Glycine pH 9.0 buffer, 45° C., 24 weeks) of 9.31. The pH (Glycine pH 9.0 buffer, 55° C., 0 weeks) was 9.00, the pH (Glycine pH 9.0 buffer, 55° C., 4 weeks) was 9.27 and the FMdC (Glycine pH 9.0 buffer, 55° C., 8 weeks) was 0.79 mg/mL. For the same compound, the FMdC [7] was 0.63 mg/mL and the pH [7] was 8.92.
